Data as given in patent US6472152B1 (priority 1998, dated 2002).

Tested on: Salmonella typhimurium TA104 pr1

O=C1OCCN1/N=C/c1ccc([N+](=O)[O-])o1 [Furazolidone]
Toxic (pri): −
